According to PMC13107022:
Results are given in words; binding and its absence hold for the method and conditions named. In cells and extracts the contact can be indirect. Some results given as binding are weak or reduced against the parent protein; the word gives no strength. Where a sequence is shown, tags or fusion partners need not be part of it. Each block holds one molecule with its values, some of them ahead of it.

By UniProt entry, the sequences of proteins in these tests, tags left out.
UniProt O00505: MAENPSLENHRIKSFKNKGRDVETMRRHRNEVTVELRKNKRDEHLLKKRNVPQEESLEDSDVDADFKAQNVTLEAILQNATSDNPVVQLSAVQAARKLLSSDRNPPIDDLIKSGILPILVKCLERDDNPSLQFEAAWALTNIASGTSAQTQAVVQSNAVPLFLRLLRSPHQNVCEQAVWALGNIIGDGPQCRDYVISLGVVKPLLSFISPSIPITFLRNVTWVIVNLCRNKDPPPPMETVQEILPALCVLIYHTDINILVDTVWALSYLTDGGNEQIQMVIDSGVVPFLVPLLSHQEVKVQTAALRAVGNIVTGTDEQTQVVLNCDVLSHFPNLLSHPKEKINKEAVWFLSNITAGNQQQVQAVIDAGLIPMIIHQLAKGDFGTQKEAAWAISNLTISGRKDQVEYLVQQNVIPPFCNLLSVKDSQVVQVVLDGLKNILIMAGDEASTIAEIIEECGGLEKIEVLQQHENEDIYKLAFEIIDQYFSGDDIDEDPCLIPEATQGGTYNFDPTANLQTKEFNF
UniProt Q9Y4B6: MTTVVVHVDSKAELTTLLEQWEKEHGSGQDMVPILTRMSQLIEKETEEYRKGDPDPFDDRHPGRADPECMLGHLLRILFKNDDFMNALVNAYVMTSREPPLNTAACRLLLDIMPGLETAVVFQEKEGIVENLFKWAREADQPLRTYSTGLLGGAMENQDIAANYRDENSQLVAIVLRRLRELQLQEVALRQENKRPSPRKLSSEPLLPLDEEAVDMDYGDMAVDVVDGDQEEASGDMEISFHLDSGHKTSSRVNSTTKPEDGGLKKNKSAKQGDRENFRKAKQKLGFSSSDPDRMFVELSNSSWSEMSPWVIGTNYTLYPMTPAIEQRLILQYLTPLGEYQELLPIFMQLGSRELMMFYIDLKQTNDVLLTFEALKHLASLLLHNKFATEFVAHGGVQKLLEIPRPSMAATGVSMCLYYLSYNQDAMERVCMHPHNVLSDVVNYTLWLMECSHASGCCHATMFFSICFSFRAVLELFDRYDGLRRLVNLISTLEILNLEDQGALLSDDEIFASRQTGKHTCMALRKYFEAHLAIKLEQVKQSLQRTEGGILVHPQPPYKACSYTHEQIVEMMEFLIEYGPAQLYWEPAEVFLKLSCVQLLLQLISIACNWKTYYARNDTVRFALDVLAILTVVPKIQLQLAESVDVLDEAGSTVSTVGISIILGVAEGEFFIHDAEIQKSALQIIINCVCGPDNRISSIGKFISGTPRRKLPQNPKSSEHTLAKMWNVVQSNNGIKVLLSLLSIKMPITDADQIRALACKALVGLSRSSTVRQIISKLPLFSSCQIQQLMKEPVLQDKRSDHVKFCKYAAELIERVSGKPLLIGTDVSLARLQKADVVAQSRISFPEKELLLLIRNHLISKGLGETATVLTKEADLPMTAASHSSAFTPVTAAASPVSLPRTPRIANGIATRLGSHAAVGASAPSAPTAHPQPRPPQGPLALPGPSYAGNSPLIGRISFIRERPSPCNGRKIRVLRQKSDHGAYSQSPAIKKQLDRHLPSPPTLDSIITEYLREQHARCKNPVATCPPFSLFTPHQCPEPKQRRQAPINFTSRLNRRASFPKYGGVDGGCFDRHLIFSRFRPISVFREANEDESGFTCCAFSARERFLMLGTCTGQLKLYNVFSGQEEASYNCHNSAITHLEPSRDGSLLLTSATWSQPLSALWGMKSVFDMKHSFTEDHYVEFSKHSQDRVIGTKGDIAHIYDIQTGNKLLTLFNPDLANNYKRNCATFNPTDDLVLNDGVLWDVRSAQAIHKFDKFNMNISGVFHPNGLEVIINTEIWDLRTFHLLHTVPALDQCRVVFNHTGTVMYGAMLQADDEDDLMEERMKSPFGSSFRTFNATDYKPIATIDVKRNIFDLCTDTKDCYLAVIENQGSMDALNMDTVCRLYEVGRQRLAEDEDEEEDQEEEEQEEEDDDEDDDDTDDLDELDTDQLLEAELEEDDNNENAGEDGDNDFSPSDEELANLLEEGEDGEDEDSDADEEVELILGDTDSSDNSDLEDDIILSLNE

Legend:
[1] = target: T1, MBP-RAG1 (full-length human RAG1 with N-terminal maltose-binding protein tag) (human) (UniProt P15918); test: pull-down; MBP pull-down: HEK293T co-transfected with MBP-fused RAG1/2 and HA-tagged VprBP; same procedure as the GST pull-down but dextrin beads to enrich MBP-tagged proteins; western blot
T1 sequence: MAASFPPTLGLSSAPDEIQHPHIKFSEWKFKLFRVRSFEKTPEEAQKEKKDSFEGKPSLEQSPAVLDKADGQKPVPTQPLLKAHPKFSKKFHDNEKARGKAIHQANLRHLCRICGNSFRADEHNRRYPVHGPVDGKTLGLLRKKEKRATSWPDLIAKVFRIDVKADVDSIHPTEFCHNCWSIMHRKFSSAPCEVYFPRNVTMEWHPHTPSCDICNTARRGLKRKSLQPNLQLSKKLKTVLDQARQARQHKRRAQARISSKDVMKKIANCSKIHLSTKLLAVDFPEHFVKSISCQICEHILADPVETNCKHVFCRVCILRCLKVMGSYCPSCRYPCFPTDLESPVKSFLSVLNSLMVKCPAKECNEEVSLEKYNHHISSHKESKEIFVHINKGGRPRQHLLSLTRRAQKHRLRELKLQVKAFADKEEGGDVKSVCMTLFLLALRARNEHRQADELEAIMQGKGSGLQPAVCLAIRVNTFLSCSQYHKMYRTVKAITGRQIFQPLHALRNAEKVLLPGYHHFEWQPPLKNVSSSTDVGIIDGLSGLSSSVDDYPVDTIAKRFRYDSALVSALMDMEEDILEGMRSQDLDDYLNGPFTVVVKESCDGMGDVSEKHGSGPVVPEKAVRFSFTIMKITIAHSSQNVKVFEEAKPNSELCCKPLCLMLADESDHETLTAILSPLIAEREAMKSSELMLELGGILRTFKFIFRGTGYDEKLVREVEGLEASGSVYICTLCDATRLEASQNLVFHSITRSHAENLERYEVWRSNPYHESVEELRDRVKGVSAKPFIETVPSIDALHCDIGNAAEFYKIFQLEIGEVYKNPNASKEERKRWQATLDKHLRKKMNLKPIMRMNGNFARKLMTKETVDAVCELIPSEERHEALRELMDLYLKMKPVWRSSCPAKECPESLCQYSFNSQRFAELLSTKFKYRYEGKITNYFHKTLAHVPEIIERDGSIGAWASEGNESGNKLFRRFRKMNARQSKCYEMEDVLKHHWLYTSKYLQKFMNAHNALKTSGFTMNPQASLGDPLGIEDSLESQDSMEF

[2] = target: T2, GST-NUP37 (Nucleoporin 37 with N-terminal GST tag) (human) (UniProt Q8NFH4); test: pull-down; in vivo GST pull-down: HEK293T co-transfected with MBP-tagged RAG1/2 and GST-tagged target protein; lysis in 50 mM Tris-HCl pH 7.5, 150 mM NaCl, 1% NP-40; glutathione agarose beads, 4°C, 2 h; western blot
T2 sequence: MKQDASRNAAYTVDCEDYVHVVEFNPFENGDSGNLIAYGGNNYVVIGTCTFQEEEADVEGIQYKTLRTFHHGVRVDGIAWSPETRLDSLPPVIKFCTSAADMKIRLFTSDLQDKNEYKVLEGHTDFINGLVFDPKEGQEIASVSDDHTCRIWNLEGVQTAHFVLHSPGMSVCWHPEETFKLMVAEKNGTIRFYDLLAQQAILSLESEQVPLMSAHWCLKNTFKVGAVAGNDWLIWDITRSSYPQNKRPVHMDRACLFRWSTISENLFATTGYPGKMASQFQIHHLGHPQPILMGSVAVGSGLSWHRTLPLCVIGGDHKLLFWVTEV

[3] = target: T3, GST-NUP133 (N-terminal GST tag) (human) (UniProt Q8WUM0); test: as above
T3 sequence: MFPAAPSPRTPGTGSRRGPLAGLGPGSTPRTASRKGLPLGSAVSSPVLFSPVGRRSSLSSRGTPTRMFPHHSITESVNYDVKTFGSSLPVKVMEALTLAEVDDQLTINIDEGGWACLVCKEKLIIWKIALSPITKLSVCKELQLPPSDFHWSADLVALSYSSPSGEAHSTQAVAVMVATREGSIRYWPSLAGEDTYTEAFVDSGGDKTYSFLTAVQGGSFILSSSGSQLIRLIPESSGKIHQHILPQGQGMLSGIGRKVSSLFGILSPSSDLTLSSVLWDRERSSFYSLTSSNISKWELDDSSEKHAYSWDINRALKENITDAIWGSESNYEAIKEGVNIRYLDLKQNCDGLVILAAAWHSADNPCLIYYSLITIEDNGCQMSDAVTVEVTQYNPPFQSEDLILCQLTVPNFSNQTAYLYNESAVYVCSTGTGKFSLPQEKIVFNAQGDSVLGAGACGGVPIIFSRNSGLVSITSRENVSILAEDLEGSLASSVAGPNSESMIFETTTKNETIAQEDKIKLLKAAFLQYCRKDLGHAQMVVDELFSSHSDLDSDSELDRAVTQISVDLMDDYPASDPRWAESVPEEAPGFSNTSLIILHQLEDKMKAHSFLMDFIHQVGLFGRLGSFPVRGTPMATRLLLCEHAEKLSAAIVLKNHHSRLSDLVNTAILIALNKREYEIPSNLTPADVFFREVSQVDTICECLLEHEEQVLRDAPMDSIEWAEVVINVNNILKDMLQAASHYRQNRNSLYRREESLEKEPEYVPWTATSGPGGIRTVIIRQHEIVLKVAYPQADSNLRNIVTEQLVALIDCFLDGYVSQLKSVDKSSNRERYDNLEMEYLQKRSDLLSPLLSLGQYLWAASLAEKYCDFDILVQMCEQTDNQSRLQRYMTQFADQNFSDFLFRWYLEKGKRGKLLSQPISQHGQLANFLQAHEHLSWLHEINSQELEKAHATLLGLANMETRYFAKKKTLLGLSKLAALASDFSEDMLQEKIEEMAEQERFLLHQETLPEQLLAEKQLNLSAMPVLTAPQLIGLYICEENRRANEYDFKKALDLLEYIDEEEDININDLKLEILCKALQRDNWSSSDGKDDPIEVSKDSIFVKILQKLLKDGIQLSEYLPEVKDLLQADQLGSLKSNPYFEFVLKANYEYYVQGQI

[4] = target: GST-KPNA3 (Karyopherin Subunit Alpha 3 with N-terminal GST tag) (human) (UniProt O00505); test: pull-down; in vivo GST pull-down for subunit selectivity: GST-KPNA3 or GST-NAA40 examined with MBP-RAG1 and with MBP-RAG2 (Supplementary Figure S6)
[5] = target: GST-KPNA3 (Karyopherin Subunit Alpha 3 with N-terminal GST tag) (human) (UniProt O00505); test: pull-down; in vivo GST pull-down: HEK293T co-transfected with MBP-tagged RAG1/2 and GST-tagged target protein; lysis in 50 mM Tris-HCl pH 7.5, 150 mM NaCl, 1% NP-40; glutathione agarose beads, 4°C, 2 h; western blot

binding [1]: binds
Molecule: HA-tagged VprBP (Vpr-binding protein) (from UniProt Q9Y4B6 1-1507)

binding [2]: binds
B1: RAG2 core (residues 1–387) (domain or fragment, UniProt P55895 1-387)
chain: MSLQMVTVSNNIALIQPGFSLMNFDGQVFFFGQKGWPKRSCPTGVFHLDVKHNHVKLKPTIFSKDSCYLPPLRYPATCTFKGSLESEKHQYIIHGGKTPNNEVSDKIYVMSIVCKNNKKVTFRCTEKDLVGDVPEARYGHSINVVYSRGKSMGVLFGGRSYMPSTHRTTEKWNSVADCLPCVFLVDFEFGCATSYILPELQDGLSFHVSIAKNDTIYILGGHSLANNIRPANLYRIRVDLPLGSPAVNCTVLPGGISVSSAILTQTNNDEFVIVGGYQLENQKRMICNIISLEDNKIEIREMETPDWTPDIKHSKIWFGSNMGNGTVFLGIPGDNKQVVSEGFYFYMLKCAEDDTNEEQTTFTNSQTSTEDPGDSTPFEDSEEFCFS

binding [3]: binds weakly
binding [2]: binds
B2: MBP-RAG2 (full-length human RAG2 with N-terminal maltose-binding protein tag) (protein, UniProt P55895 1-527)
chain: MSLQMVTVSNNIALIQPGFSLMNFDGQVFFFGQKGWPKRSCPTGVFHLDVKHNHVKLKPTIFSKDSCYLPPLRYPATCTFKGSLESEKHQYIIHGGKTPNNEVSDKIYVMSIVCKNNKKVTFRCTEKDLVGDVPEARYGHSINVVYSRGKSMGVLFGGRSYMPSTHRTTEKWNSVADCLPCVFLVDFEFGCATSYILPELQDGLSFHVSIAKNDTIYILGGHSLANNIRPANLYRIRVDLPLGSPAVNCTVLPGGISVSSAILTQTNNDEFVIVGGYQLENQKRMICNIISLEDNKIEIREMETPDWTPDIKHSKIWFGSNMGNGTVFLGIPGDNKQVVSEGFYFYMLKCAEDDTNEEQTTFTNSQTSTEDPGDSTPFEDSEEFCFSAEANSFDGDDEFDTYNEDDEEDESETGYWITCCPTCDVDINTWVPFYSTELNKPAMIYCSHGDGHWVHAQCMDLAERTLIHLSAGSNKYYCNEHVEIARALHTPQRVLPLKKPPMKSLRKKGSGKILTPAKKSFLRRLFD

binding [4]: binds
binding [5]: binds
B3: MBP-RAG1 (full-length human RAG1 with N-terminal maltose-binding protein tag) (protein, UniProt P15918 1-1043)
chain: MAASFPPTLGLSSAPDEIQHPHIKFSEWKFKLFRVRSFEKTPEEAQKEKKDSFEGKPSLEQSPAVLDKADGQKPVPTQPLLKAHPKFSKKFHDNEKARGKAIHQANLRHLCRICGNSFRADEHNRRYPVHGPVDGKTLGLLRKKEKRATSWPDLIAKVFRIDVKADVDSIHPTEFCHNCWSIMHRKFSSAPCEVYFPRNVTMEWHPHTPSCDICNTARRGLKRKSLQPNLQLSKKLKTVLDQARQARQHKRRAQARISSKDVMKKIANCSKIHLSTKLLAVDFPEHFVKSISCQICEHILADPVETNCKHVFCRVCILRCLKVMGSYCPSCRYPCFPTDLESPVKSFLSVLNSLMVKCPAKECNEEVSLEKYNHHISSHKESKEIFVHINKGGRPRQHLLSLTRRAQKHRLRELKLQVKAFADKEEGGDVKSVCMTLFLLALRARNEHRQADELEAIMQGKGSGLQPAVCLAIRVNTFLSCSQYHKMYRTVKAITGRQIFQPLHALRNAEKVLLPGYHHFEWQPPLKNVSSSTDVGIIDGLSGLSSSVDDYPVDTIAKRFRYDSALVSALMDMEEDILEGMRSQDLDDYLNGPFTVVVKESCDGMGDVSEKHGSGPVVPEKAVRFSFTIMKITIAHSSQNVKVFEEAKPNSELCCKPLCLMLADESDHETLTAILSPLIAEREAMKSSELMLELGGILRTFKFIFRGTGYDEKLVREVEGLEASGSVYICTLCDATRLEASQNLVFHSITRSHAENLERYEVWRSNPYHESVEELRDRVKGVSAKPFIETVPSIDALHCDIGNAAEFYKIFQLEIGEVYKNPNASKEERKRWQATLDKHLRKKMNLKPIMRMNGNFARKLMTKETVDAVCELIPSEERHEALRELMDLYLKMKPVWRSSCPAKECPESLCQYSFNSQRFAELLSTKFKYRYEGKITNYFHKTLAHVPEIIERDGSIGAWASEGNESGNKLFRRFRKMNARQSKCYEMEDVLKHHWLYTSKYLQKFMNAHNALKTSGFTMNPQASLGDPLGIEDSLESQDSMEF
